No constants are given. Whether binding was seen depends on the method and setting. Binding can be weak; no strength is given.
Tests used:
Experiment in all cases: lacO-lacI tethering
[1] = biological target: mCherry-lacI-ESCO2 with Box B deleted (UniProt Q56NI9)
[2] = biological target: mCherry-lacI-ESCO2 with Box A deleted (UniProt Q56NI9)
[3] = biological target: mCherry-lacI-ESCO2 with the PIP box deleted (UniProt Q56NI9)

The chains behind the UniProt entries cited, without tags or fusion partners. Where a name states a change or a piece, a line headed by the entry shows the natural chain unless it says otherwise.
UniProt Q56NI9: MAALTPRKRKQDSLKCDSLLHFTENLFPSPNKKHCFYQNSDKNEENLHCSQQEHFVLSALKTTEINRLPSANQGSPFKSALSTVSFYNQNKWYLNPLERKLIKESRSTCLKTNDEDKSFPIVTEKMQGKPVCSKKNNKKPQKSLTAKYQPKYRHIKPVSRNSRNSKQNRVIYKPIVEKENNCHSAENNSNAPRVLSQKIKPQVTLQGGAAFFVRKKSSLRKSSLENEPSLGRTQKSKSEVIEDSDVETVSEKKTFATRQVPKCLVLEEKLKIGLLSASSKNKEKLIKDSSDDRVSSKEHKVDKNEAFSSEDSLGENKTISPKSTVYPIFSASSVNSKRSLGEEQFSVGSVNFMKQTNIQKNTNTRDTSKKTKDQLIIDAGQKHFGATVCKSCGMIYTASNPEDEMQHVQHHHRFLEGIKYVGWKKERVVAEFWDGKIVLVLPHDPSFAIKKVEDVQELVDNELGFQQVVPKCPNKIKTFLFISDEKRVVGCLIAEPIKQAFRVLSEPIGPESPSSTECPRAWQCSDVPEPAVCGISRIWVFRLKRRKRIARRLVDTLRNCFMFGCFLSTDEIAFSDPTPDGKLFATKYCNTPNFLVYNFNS
UniProt P12004: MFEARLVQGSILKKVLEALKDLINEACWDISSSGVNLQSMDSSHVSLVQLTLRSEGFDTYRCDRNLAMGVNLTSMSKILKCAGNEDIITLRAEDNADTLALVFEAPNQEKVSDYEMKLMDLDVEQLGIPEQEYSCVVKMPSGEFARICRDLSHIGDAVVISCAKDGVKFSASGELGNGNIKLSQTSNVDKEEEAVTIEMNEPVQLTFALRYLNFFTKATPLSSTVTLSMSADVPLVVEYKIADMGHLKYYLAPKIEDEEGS

- binding [1]: binds
- binding [2]: binds
- binding [3]: binds
Substance: GFP-PCNA (from UniProt P12004 1-261)

From article doi:10.1101/666115
